Reference: patent CN110003338A
Results are given in words; binding and its absence hold for the method and conditions named. Some entries that bind do so weakly or less than the wild type.

T1: 人OX40 (soluble antigen in the Fortebio assay) (human) (UniProt P43489)
T1 sequence (looked up): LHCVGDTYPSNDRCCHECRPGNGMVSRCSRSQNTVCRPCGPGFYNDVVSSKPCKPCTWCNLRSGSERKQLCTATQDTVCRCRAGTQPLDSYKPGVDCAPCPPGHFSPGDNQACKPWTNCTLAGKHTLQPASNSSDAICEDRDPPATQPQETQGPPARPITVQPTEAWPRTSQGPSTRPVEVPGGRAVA


Target: T1, 人OX40 (soluble antigen in the Fortebio assay) (human)
Test: BLI (Fortebio), antibody captured on ProA sensor, human OX40 at 400 and 200 nM

Row | Binder | binding
1 | 抗OX40单克隆抗体4F2 (antibody, V domains shown) VH: DVQLQESGPGLVKPSQSLSLTCSVTGYSITSGYNWNWIRQFPGNKLEWMGYISYDGSNNYNPSLKNRISITRDTSKNQFFLKLNSVTTEDTATYYCARQGSSGHFYYAMDYWGQGTSVTVSS VL: DIVMTQAHKFMSTSVGDRVSITCKASQDVSSAVAWYQQKPGQSPKLLIYWASIRHTGVPDRFTGSGSGTDYTLTISSVQAEDLALYYCQQHYSTPWTFGGGTKLEIK | binds
2 | 抗OX40单克隆抗体6A6 (antibody, V domains shown) VH: EVQLQQSGPELVKPGASVKISCKASGYSFTGYYMNWVKQSPEKSLEWIGEINPSTGGTTYNQKFKAKATLTVDKSSSTAYMQLKSLTSEDSAVYYCARSGLPYYDVDYWGQGTTLTVSS VL: DIQMTQSPSSLSASLGERVSLTCRASQEISGYLSWLHQKPDGTIKRLIYAASTLDSGVPKRFSGSRSGSDYSLTISSLESEDFADYYCLQYASYPLTFGAGTNLELK | binds
